In the supplement of paper PMC8728848:
This is one part of the list.

Tests used:
Assay in all cases: glycan array binding signal (z-score within array); higher = stronger binding
Details in all cases: glycan notation: IUPAC condensed, linker removed
[1] = target: Gal6S(b1-4)Glc
Summary of the method: (§1)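 Glycan array data came from 3228 arrays in the Consortium for Functional Glycomics database, and only arrays with an available protein sequence were kept. Glycan names were put into IUPAC-condensed notation, and columns mapping to the same glycan were averaged. The binding signal is a within-array Z-score, averaged across arrays of one protein sequence run at different concentrations or buffers and across linkers. A negative Z-score can be read as non-binding.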

[2] = target: Gal6S(b1-4)Glc6S
Summary of the method: as §1

[3] = target: Gal6S(b1-4)GlcNAc
Summary of the method: as §1

[4] = target: Gal6S(b1-4)GlcNAc6S
Summary of the method: as §1

[5] = target: GalNAc(a1-3)Gal
Summary of the method: as §1

[6] = target: GalNAc(a1-3)GalNAc
Summary of the method: as §1

[7] = target: GalNAc(a1-3)GalNAc(a1-3)Gal(a1-4)Gal(b1-4)GlcNAc
Summary of the method: as §1

[8] = target: GalNAc(b1-3)Gal
Summary of the method: as §1

[9] = target: GalNAc(b1-3)Gal(a1-4)Gal(b1-4)GlcNAc
Summary of the method: as §1

[10] = target: GalNAc(b1-3)Gal(a1-4)Gal(b1-4)GlcNAc(b1-3)Gal(b1-4)Glc
Summary of the method: as §1

[11] = target: GalNAc(b1-3)Gal(a1-6)Gal(b1-4)Glc
Summary of the method: as §1

[12] = target: GalNAc(b1-3)GalNAc
Summary of the method: as §1

[13] = target: GalNAc(b1-4)GlcNAc
Summary of the method: as §1

[14] = target: GalNAc(b1-4)GlcNAc(b1-2)Man(a1-3)[GalNAc(b1-4)GlcNAc(b1-2)Man(a1-6)]Man(b1-4)GlcNAc(b1-4)GlcNAc
Summary of the method: as §1

[15] = target: Glc(a1-4)Glc
Summary of the method: as §1

[16] = target: Glc(a1-6)Glc(a1-6)Glc
Summary of the method: as §1

[17] = target: Glc(b1-4)Glc
Summary of the method: as §1

[18] = target: Glc(b1-6)Glc
Summary of the method: as §1

[19] = target: GlcA(b1-3)Gal
Summary of the method: as §1

[20] = target: GlcA(b1-3)GlcNAc
Summary of the method: as §1

[21] = target: GlcA(b1-6)Gal
Summary of the method: as §1

[22] = target: GlcNAc(a1-3)Gal(b1-4)GlcNAc
Summary of the method: as §1

[23] = target: GlcNAc(a1-4)Gal(b1-3)GlcNAc
Summary of the method: as §1

[24] = target: GlcNAc(a1-4)Gal(b1-4)GalNAc
Summary of the method: as §1

[25] = target: GlcNAc(a1-4)Gal(b1-4)GlcNAc
Summary of the method: as §1

[26] = target: GlcNAc(a1-4)Gal(b1-4)GlcNAc(b1-3)Gal(b1-4)Glc
Summary of the method: as §1

[27] = target: GlcNAc(a1-4)Gal(b1-4)GlcNAc(b1-3)Gal(b1-4)GlcNAc
Summary of the method: as §1

[28] = target: GlcNAc(a1-4)Gal(b1-4)GlcNAc(b1-3)Gal(b1-4)GlcNAc(b1-3)Gal(b1-4)GlcNAc
Summary of the method: as §1

[29] = target: GlcNAc(a1-4)Gal(b1-4)GlcNAc(b1-3)Gal(b1-4)[Fuc(a1-3)]GlcNAc(b1-3)Gal(b1-4)[Fuc(a1-3)]GlcNAc
Summary of the method: as §1

[30] = target: GlcNAc(a1-6)Gal(b1-4)GlcNAc
Summary of the method: as §1

[31] = target: GlcNAc(b1-2)Gal(b1-3)GalNAc
Summary of the method: as §1

[32] = target: GlcNAc(b1-2)Man(a1-3)[GlcNAc(b1-2)Man(a1-6)]Man(b1-4)GlcNAc(b1-4)GlcNAc
Summary of the method: as §1

[33] = target: GlcNAc(b1-2)Man(a1-3)[GlcNAc(b1-2)Man(a1-6)]Man(b1-4)GlcNAc(b1-4)[Fuc(a1-6)]GlcNAc
Summary of the method: as §1

[34] = target: GlcNAc(b1-2)[GlcNAc(b1-4)]Man(a1-3)[GlcNAc(b1-2)Man(a1-6)]Man(b1-4)GlcNAc(b1-4)GlcNAc
Summary of the method: as §1

[35] = target: GlcNAc(b1-3)Gal
Summary of the method: as §1

[36] = target: GlcNAc(b1-3)Gal(b1-3)GalNAc
Summary of the method: as §1

[37] = target: GlcNAc(b1-3)Gal(b1-4)Glc
Summary of the method: as §1

[38] = target: GlcNAc(b1-3)Gal(b1-4)GlcNAc
Summary of the method: as §1

B1: SRS6 (Toxoplasma gondii), Q9NH12 (protein)
chain: MARTGSMQQRRGGFQTTARMLMAVCVSGVLLLSSGPSSANKLTEGQQNQNSGPGAATQEGPTIEGAVAKCVLKTTAAENGSSRAKNTTGLTLSKENLVVSLQCSGEKNAIVPKDQKKVCSAAPNAKVADCKGADTDKQVTLKSLLGTSGDIQWEKTIVSTDNKGEVMTLKIKESELPLFDKAFFVGCEEDKAQTRTSQATECKVNVSVKARPSTVGENNVVTCAYGKDSNPRPLEVEMSADNDTLTIDCGTDGSLKPTKYTEEFCVTDNSQLESCTTKKFSEILPTFLPSWWVSDSQNGSAKLTIPESGFPEEQQQFRLGCVPKKTTQSPQANPSVKTEKEEGAQNTDASTSNCSVIVTVKASNFSSLASSIAPTAAVAGGAAALTGFLVGSF
[1]
  glycan array binding signal (z-score): -0.351
[2]
  glycan array binding signal (z-score): 4.38
[3]
  glycan array binding signal (z-score): 0.098
[4]
  glycan array binding signal (z-score): 0.86
[5]
  glycan array binding signal (z-score): 0.054
[6]
  glycan array binding signal (z-score): 0.939
[7]
  glycan array binding signal (z-score): 0.683
[8]
  glycan array binding signal (z-score): 0.499
[9]
  glycan array binding signal (z-score): -0.316
[10]
  glycan array binding signal (z-score): -0.699
[11]
  glycan array binding signal (z-score): 1.31
[12]
  glycan array binding signal (z-score): 0.267
[13]
  glycan array binding signal (z-score): -0.358
[14]
  glycan array binding signal (z-score): 0.625
[15]
  glycan array binding signal (z-score): -0.129
[16]
  glycan array binding signal (z-score): -0.454
[17]
  glycan array binding signal (z-score): -0.479
[18]
  glycan array binding signal (z-score): -0.615
[19]
  glycan array binding signal (z-score): -0.167
[20]
  glycan array binding signal (z-score): -0.705
[21]
  glycan array binding signal (z-score): -0.589
[22]
  glycan array binding signal (z-score): -1.13
[23]
  glycan array binding signal (z-score): 1.16
[24]
  glycan array binding signal (z-score): 0.375
[25]
  glycan array binding signal (z-score): -0.154
[26]
  glycan array binding signal (z-score): -0.512
[27]
  glycan array binding signal (z-score): 0.319
[28]
  glycan array binding signal (z-score): -0.784
[29]
  glycan array binding signal (z-score): 0.807
[30]
  glycan array binding signal (z-score): 0.274
[31]
  glycan array binding signal (z-score): -0.053
[32]
  glycan array binding signal (z-score): -1.05
[33]
  glycan array binding signal (z-score): 13.7
[34]
  glycan array binding signal (z-score): -0.165
[35]
  glycan array binding signal (z-score): 0.424
[36]
  glycan array binding signal (z-score): -0.739
[37]
  glycan array binding signal (z-score): -1.14
[38]
  glycan array binding signal (z-score): -0.665
